The source of these data is article PMC5004264, “The pesticidal Cry6Aa toxin from Bacillus thuringiensis is structurally similar to HlyE-family alpha pore-forming toxins” (BMC Biology, 2016).

No constants are given. Whether binding was seen depends on the method and setting.

In the experiment the target is Cry6Aa trypsin-resistant core (Bacillus thuringiensis) (UniProt Q45757). Description: crystal structure; trypsin-resistant core, 100 mg/ml, 20 % (w/v) PEG 1000, 0.1 M sodium phosphate dibasic/citric acid pH 4.2, 0.2 M lithium sulfate; 2.0 A; both purified.

B1: Cry6Aa trypsin-resistant core (complex, UniProt Q45757 12-390)
chain 1: HSLIHTIKLNSNKKYGPGDMTNGNQFIISKQEWATIGAYIQTGLGLPVNEQQLRTHVNLSQDISIPSDFSQLYDVYCSDKTSAEWWNKNLYPLIIKSANDIASYGFKVAGDPSIKKDGYFKKLQDELDNIVDNNSDDDAIAKAIKDFKARCGILIKEAKQYEEAAKNIVTSLDQFLHGDQKKLEGVINIQKRLKEVQTALNQAHGESSPAHKELLEKVKNLKTTLERTIKAEQDLEKKVEYSFLLGPLLGFVVYEILENTAVQHIKNQIDEIKKQLDSAQHDLDRDVKIIGMLNSINTDIDNLYSQGQEAIKVFQKLQGIWATIGAQIENLRTTSLQEVQDSDDADEIQIELEDASDAWLVVAQEARDFTLNAYSTNSR
chain 2: NSNLEYKCPENNFMIYWYNNSDWYNNSDWYNN
Turning to B1, the binding entry was “no binding”.
